# Experimental data: article PMC6667501
# Results are given in words; binding and its absence hold for the method and conditions named. In cells and extracts the contact can be indirect. Where a sequence is shown, tags or fusion partners need not be part of it.
# Molecular target: T1, HA-PIAS1-CTD (C-terminal domain, 345-650 aa of PIAS1) (UniProt O75925)
# T1 sequence: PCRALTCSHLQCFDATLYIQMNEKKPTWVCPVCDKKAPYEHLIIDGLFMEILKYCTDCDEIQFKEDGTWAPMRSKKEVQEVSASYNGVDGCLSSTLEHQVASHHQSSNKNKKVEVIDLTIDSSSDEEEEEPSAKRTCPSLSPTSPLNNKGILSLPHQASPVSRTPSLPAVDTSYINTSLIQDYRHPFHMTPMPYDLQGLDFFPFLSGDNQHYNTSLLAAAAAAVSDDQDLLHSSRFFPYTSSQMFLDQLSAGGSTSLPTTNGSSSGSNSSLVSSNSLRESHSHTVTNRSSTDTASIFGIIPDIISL
# Assay: co-IP; HeLa co-transfected with HA-PIAS1 (or HA-PIAS1-NTD/-CTD) and FLAG-tagged viral genes for 30 h; lysis buffer 50 mM Tris-HCl, 0.1% Triton-X-100, 150 mM NaCl, pH 7.8; precipitated with α-HA MAb and protein G agarose, blotted with α-FLAG
substance,measurement,value
"FLAG-tagged PRRSV nucleocapsid (N) protein, full-length wild type",binding,no binding
